In PubChem BioAssay AID1347075 (National Center for Advancing Translational Sciences (NCATS), 2019):
In all, about 400,000 compounds went through this assay and about 5,500 (1.4%) were called active. The shares of active, inactive and inconclusive entries below differ from those in the screen. The call rests on the fitted dose curve; in most records, active means well fitted cell-killing curve with a large enough effect; inconclusive means small, poorly fitted or top-dose-only effect, or effect the other way; inactive means flat fitted curve, though single readings scatter. Where the call is inconclusive, the potency comes from a doubtful curve fit.

assay: qHTS assay for MDR1-selective chemotherapeutics: Primary screen using the parental adenocarcinoma cell KB-3-1; conditions: KB-3-1 viability, CellTiter-Glo ATP luminescence, 72 h; activity change, negative = cytotoxic: at 46.1 µM (top of the series); further: nearly all actives have a fitted effect of over 60% in size
Summary of the method: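 72 h, 37 °C compound treatment of KB-3-1 parental cells; CellTiter-Glo added, 10 min, luminescence read. Data corrected against DMSO-only plates and normalized before curve fitting.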
On the % scale 0 is the no-effect control and ±100 the full control effect; potency means the concentration at half of the fitted maximal effect.

Compound | Potency | activity change, negative = cytotoxic
O=C1CC[C@@H](C(=O)O)N1 | inactive | 
Cc1ccc(NC(=O)c2ccn(C(=O)Nc3ccccc3)n2)c(C)c1 | inconclusive: 18.4 µM [rising, single point] | 
Cc1oc(-c2ccccc2F)nc1Cn1c(SCc2cccc(C(F)(F)F)c2)nc2ccncc21 | inactive | 
CC(C)(C)OC(=O)N1CCC(C(=O)N[C@@H](Cc2ccccc2)C(=O)O)(c2ccccc2)CC1 | inactive | 
O=[N+]([O-])c1ccc(/C=C/c2ccc3cccc(O)c3n2)cc1 | inconclusive: 9.2 µM [cytotoxic, partial curve, poor fit] | 
COc1ccc(N2CCN(c3ncnc4scc(-c5ccccc5)c34)CC2)cc1 | inconclusive: 18.4 µM [cytotoxic, single point] | 
CCn1nnnc1NCc1c(OC)ccc2ccccc12 | inconclusive: 29.1 µM [rising, partial curve, poor fit] | 
CCOc1ccc2[nH]c(=O)c(CN(Cc3ccccc3OC)C(=O)c3ccccc3)cc2c1 | active: 5.17 µM | 
COc1ccc(N(CC(=O)Nc2cc(OC)cc(OC)c2)S(=O)(=O)c2c(C)noc2C)cc1 | inconclusive: 23.1 µM [cytotoxic, single point] | 
Cc1cccc(-n2cnc3cc(C(=O)NCc4ccccc4Cl)ccc32)c1 | inconclusive: 29.1 µM [cytotoxic, single point] | 
COc1ccc(C2c3c(ncn(Cc4ccco4)c3=N)Oc3ccc4ccccc4c32)cc1 (stereo not drawn) | inconclusive: 20.6 µM [cytotoxic, single point] | 
COc1ccc(-c2cc(NC=O)c3ncc(-c4cnn(C)c4)n3c2)cc1 | inconclusive: 20.6 µM [cytotoxic, partial curve] | 
Cc1cccc(-n2c(C)cc(C(=O)C(=O)Nc3nncs3)c2C)c1 | inactive | 
Cn1ncc(Br)c1NC(=O)CSc1ccc(Cl)cc1 | inconclusive: 29.1 µM [cytotoxic, single point] | 
O=C(CN1CCN(c2ccc(F)cc2)CC1)Nc1ccccc1[N+](=O)[O-] | inactive | 
CC(C)N=c1scc(-c2cccs2)n1/N=C/c1ccc(O)c(O)c1O | inconclusive: 20.6 µM [cytotoxic, single point] | 
CC(=O)NCCNC(=O)c1ccc(-n2c(C)ccc2C)cc1 | inconclusive: 29.1 µM [cytotoxic, single point] | 
CCC(=O)Nc1cccc(NC(=S)NC(=O)c2ccc(Cl)cc2Cl)c1 | inconclusive: 29.1 µM [cytotoxic, single point] | 
CCc1cccc2c1Sc1ccccc1CC2N1CCNCC1 (stereo not drawn) | inconclusive: 23.1 µM [cytotoxic, single point] | 
COc1ccc(/C=N/NC(=O)c2csc(-n3nc(C)cc3C(F)(F)F)n2)cc1 | active: 7.31 µM | 
COc1cccc(-c2cc3nc(-c4ccccc4)cc(N4CCN(C(=O)c5ccoc5)CC4)n3n2)c1 | inconclusive: 16.4 µM [cytotoxic, single point] | 
c1ccc(C(c2ccccc2)N2CCN(c3nc4ccccc4n4cnnc34)CC2)cc1 | active: 23.1 µM | 
Cc1cc(C2=CC(=O)C[C@H](c3ccc4c(c3)OCO4)C2)ccc1F | inactive | 

Reformatted: results already given
Compound,Potency,"activity change, negative = cytotoxic"
COc1ccc(C2c3c(ncn(Cc4ccco4)c3=N)Oc3ccc4ccccc4c32)cc1 (stereo not drawn),"inconclusive: 20.6 µM [cytotoxic, single point]",
COc1ccc(-c2cc(NC=O)c3ncc(-c4cnn(C)c4)n3c2)cc1,"inconclusive: 20.6 µM [cytotoxic, partial curve]",
Cc1cccc(-n2c(C)cc(C(=O)C(=O)Nc3nncs3)c2C)c1,inactive,
Cn1ncc(Br)c1NC(=O)CSc1ccc(Cl)cc1,"inconclusive: 29.1 µM [cytotoxic, single point]",
O=C(CN1CCN(c2ccc(F)cc2)CC1)Nc1ccccc1[N+](=O)[O-],inactive,
CC(C)N=c1scc(-c2cccs2)n1/N=C/c1ccc(O)c(O)c1O,"inconclusive: 20.6 µM [cytotoxic, single point]",

(listing goes on)

Compound | Potency | activity change, negative = cytotoxic
COc1cc(CN(C(=O)c2ccc(OC(C)C)cc2)c2ccccn2)cc(OC)c1OC | inactive | 
O=C1C2C3C=CC(c4ccccc4)(C2C(=O)N1c1cccc(Cl)c1)C1C(=O)N(c2cccc(Cl)c2)C(=O)C31 (stereo not drawn) | inconclusive: 23.1 µM [cytotoxic, single point] | 
CC(=O)N1CCc2cc(S(=O)(=O)NCCC3=CCCCC3)ccc21 | inactive | 
CC(=O)Nc1cccc(-c2ccnc3c2CC(C)(C(=O)Nc2cccc(C(F)(F)F)c2)O3)c1 (stereo not drawn) | inconclusive: 29.1 µM [cytotoxic, single point] | 
COc1ccccc1/C=C/C1(C(=O)NC2CCCC2)CC(=O)N1c1ccccc1 (stereo not drawn) | active: 3.66 µM | 
Cc1[nH]nc(-c2ccc(O)cc2O)c1-c1ccc(Cl)cc1 | inconclusive: 29.1 µM [cytotoxic, single point] | 
O=C(CSc1nnc2ccccn12)c1ccccc1 | inconclusive: 5.17 µM [rising, partial curve, poor fit] | 
COc1ccc(C(=O)NC2CCCc3c2cnn3-c2cc(F)cc(F)c2)c(OC)c1OC (stereo not drawn) | inconclusive: 29.1 µM [cytotoxic, single point] | 
COCCCn1c(=O)c2sccc2n2c(CCCC(=O)NCc3ccccc3OC)nnc12 | inconclusive: 11.6 µM [rising, partial curve, poor fit] | 
CC(C)C1C(=O)N(Cc2cn(CCC3OCCCO3)nn2)CCS(=O)(=O)N1Cc1ccc(-c2ccc(Cl)c(Cl)c2)cc1 (stereo not drawn) | inconclusive: 16.4 µM [cytotoxic, single point] | 
CCCc1c(Cc2cccc(F)c2)ncn1Cc1cccc(-c2ccccc2)c1 |  | inconclusive: -57%
CCCOc1ccc(F)cc1-c1cc(C(=O)Nc2ccc(F)c(Cl)c2)[nH]n1 | inconclusive: 29.1 µM [cytotoxic, single point] | 
FC(F)(F)c1cccc(/C=N/NC(=S)NC2CCCCC2)c1 | inactive | 
COc1ccc(-c2cc(C)no2)cc1S(=O)(=O)NCc1cccc(C)c1 | inconclusive: 20.6 µM [cytotoxic, single point] | 
Cc1cccc(NC(=O)CCc2ccc(N3C(N)=NC(N)=NC3(C)C)cc2)c1 | inactive | 
N#CC(C(=O)C12CC3CC(CC(C3)C1)C2)c1nc2ccccc2[nH]1 (stereo not drawn) | inconclusive: 23.1 µM [cytotoxic, single point] | 
Cc1ccc(CNC(=O)Cc2ccc(-c3ccccc3)cc2)cc1 | inactive | 
Nc1ccc(-c2ccc(N)c([N+](=O)[O-])c2)cc1[N+](=O)[O-] | inactive | 
CCN(CC(=O)Nc1ccc(NC(C)=O)cc1)C(=O)c1ccccc1SCC(=O)N1CCCC1 | inactive | 
COCCN1CCc2nc(SCC(=O)Nc3ccc(C)c(Cl)c3)[nH]c(=O)c2C1 | inactive | 
O=C(c1ccccc1)c1nn(-c2cccc(Cl)c2)c2nc(-c3ccccc3)cc(=O)n12 | inconclusive: 23.1 µM [cytotoxic, single point] | 
CC(C)CCOc1cccc(OCC(=O)Nc2ccncc2)c1 | inconclusive: 1.46 µM [cytotoxic, partial curve] | 
O=C(COC(=O)/C=C/C(=O)N1CCN(c2ccccc2)CC1)NCc1ccc(F)cc1 | inactive | 

Compound | Potency | activity change, negative = cytotoxic
CCCc1cc(=O)[nH]c(SCC(=O)N2c3ccccc3NC(=O)C2(C)C)n1 | inconclusive: 0.0065 µM [cytotoxic, full curve, poor fit] | 
CCc1c(C)sc(NC(=S)Nc2cccnc2)c1C(=O)OC | inactive | 
CCCCn1nc(C(=O)N(C)CC(=O)Nc2cccc(F)c2)c2ccccc2c1=O | inconclusive: 23.1 µM [rising, single point] | 
Cc1cc(N2CCN(C)CC2)nc2ccc(NC(=S)NCCC(C)C)cc12 | inactive | 
O=C(CNC1CCCCCC1)Nc1ccccc1N1CCCCC1 | inconclusive: 20.6 µM [cytotoxic, single point] | 
Cc1cccc(OCCn2cc(/C=N/NC(=O)c3ccncc3)c3ccccc32)c1 | inconclusive: 23.1 µM [cytotoxic, partial curve, poor fit] | 
Cc1cc(C2=NNC(=Nc3ccc(S(=O)(=O)N4CCOCC4)cc3)SC2)c(C)n1CC1CCCO1 (stereo not drawn) | inconclusive: 20.6 µM [cytotoxic, partial curve, poor fit] | 
CCOc1ccc(C(=O)Nc2ccc3c(c2)CCCN3S(=O)(=O)c2ccc(C)cc2)cc1 | inconclusive: 20.6 µM [cytotoxic, single point] | 
COC(=O)c1cc(NC(=O)CSC2=NCCS2)cc(C(=O)OC)c1 | inconclusive: 29.1 µM [rising, single point] | 
O=C1c2ccccc2C(=O)C1C(=O)C1CC1 | inconclusive: 18.4 µM [cytotoxic, single point] | 
CC(=O)C1=CCC(c2ccccc2Cl)N(S(=O)(=O)c2ccc(C)cc2)C1 (stereo not drawn) | inconclusive: 20.6 µM [cytotoxic, single point] | 
O=C(O)CC(c1ccc(Cl)cc1)n1cccc1 (stereo not drawn) | inactive | 
C#C[C@]1(O)CC[C@H]2[C@@H]3CCC4=CC(=O)CC[C@@H]4[C@H]3CC[C@@]21C | inconclusive: 20.6 µM [cytotoxic, single point] | 
Cc1ccccc1NC(=O)/C=C/c1ccc([N+](=O)[O-])s1 | inconclusive: 4.11 µM [cytotoxic, full curve, poor fit] | 
CCC(C)[C@H]1CN=C(N)N1CCc1cccc2ccccc12 (stereo partly drawn) | inconclusive: 29.1 µM [cytotoxic, single point] | 
Clc1ccc2c(SCC3CO3)c3ccccc3nc2c1 (stereo not drawn) | inconclusive: 29.1 µM [cytotoxic, single point] | 
CCOC(=O)C1CCCN(C(=O)/C=C/c2cc(OC)c(OC)c(OC)c2)C1 (stereo not drawn) | inconclusive: 23.1 µM [rising, single point] | 
Cn1c(-c2cccc(Br)c2)cnc1NCc1ccccc1O | inactive | 
CN1CCN(c2ccc(S(=O)(=O)N3CCCCC3)cc2NC(=O)COc2cccc(Cl)c2)CC1 | inconclusive: 29.1 µM [cytotoxic, single point] | 
Cn1c(=N)n(CC(O)c2cccc3ccccc23)c2ccccc21 (stereo not drawn) | inconclusive: 18.4 µM [cytotoxic, single point] | 
COc1cccc(C2CC(c3ccccc3Cl)n3ncnc3N2)c1 (stereo not drawn) | inconclusive: 18.4 µM [cytotoxic, single point] | 
Cn1ncc2c(N3CCC(Cc4ccccc4)CC3)ncnc21 | inconclusive: 29.1 µM [cytotoxic, single point] | 
